Measured values published in PubChem BioAssay AID330 (DTP/NCI, 2004).
The list is a part of this screen's results and no random one: it gathers tests that were run many times, whatever their T/C, doses with no T/C, and many T/C values between a quarter and a half above the control. Further doses and runs are listed elsewhere. T/C gives the treated animals as a percentage of the vehicle group. Some doses have a count of surviving animals in place of a T/C: the source files T/C as zero there, which appears to mark a toxic dose or a test without result, not a measured value. Some survivor counts are full or nearly so, which does not show that the dose was tolerated: survival well below the control is almost never listed, so the zero probably covers shortened survival too. Counts of survivors are from the toxicity check (mostly the fifth day) where no day follows; animals may have died later. Schedules are NCI's codes, read here as Q, the interval in days (D) or hours (H), X, the number of doses. Some doses were run more than once; their values stand side by side, smallest first. Marks such as (2×) say how often a value occurs here. Where survival is the endpoint, this PubChem deposit counts one and a half times the control or more as active, and values a quarter to a half above the control carry no call in these data; other NCI protocols may use other cut-offs. Some T/C values carry the count of animals alive at the toxicity check (mostly the fifth day); without a count, all were alive then. Some schedule codes hold Z or #, which are not explained here.

System: P388 leukemia ip, CD2F1 mice, survival T/C
Experiment: NCI In Vivo Anticancer Drug Screen. Data for tumor model P388 Leukemia (intraperitoneal) in CD2F1 (CDF1) mice
Conditions: T/C endpoint: median survival time, higher T/C = longer survival
[1] = dose: 200.0 mg/kg/injection, schedule: Q01DX005 (ip), vehicle: Klucel (hydroxypropylcellulose) (HPC)
[2] = dose: 200.0 mg/kg/injection, schedule: Q01DX009 (ip), vehicle: Klucel (hydroxypropylcellulose) (HPC)
[3] = dose: 400.0 mg/kg/injection, schedule: Q01DX001 (ip), vehicle: Klucel (hydroxypropylcellulose) (HPC)
[4] = dose: 400.0 mg/kg/injection, schedule: Q04DX002 (ip), vehicle: Klucel (hydroxypropylcellulose) (HPC)

O=P1(N(CCCl)CCCl)NCCCO1 (centres undefined)
T/C (dose: 200.0 mg/kg/injection, schedule: Q01DX001 (ip), vehicle: saline, evaluated on day 35): 350 % of control
T/C (dose: 200.0 mg/kg/injection, schedule: Q01DX001 (ip), vehicle: saline, evaluated on day 60): 208, 229, 242, 300, 534 % of control (2×)
T/C [1]: 90 and 99 % of control
survivor count [1]: 1 of 3, 3 of 6, 2 of 3, 4 of 6, 5 of 6, 3 of 3, 6 of 6 (2×)
survivor count (dose: 200.0 mg/kg/injection, schedule: Q01DX005 (ip), vehicle: saline): 5 of 6
T/C [2]: 86 [5 of 6 alive], 93 (2×), 109 % of control
survivor count [2]: 2 of 3, 4 of 6, 5 of 6 (2×), 3 of 3, 6 of 6
survivor count (dose: 200.0 mg/kg/injection, schedule: Q01DX009 (ip), vehicle: saline): 10 of 10 and 6 of 6
survivor count (dose: 200.0 mg/kg/injection, schedule: Q01DX009 (ip), vehicle: water): 6 of 6
T/C (dose: 200.0 mg/kg/injection, schedule: Q04DX002 (ip), vehicle: Klucel (hydroxypropylcellulose) (HPC)): 113, 116, 121, 126, 137, 150, 151, 157, 166, 170, 176, 179, 193, 202, 220, 223 (2×), 226 (2×), 232, 243, 245, 247, 255, 259, 260, 269, 270, 271 (3×), 275 (2×), 285, 294 % of control
T/C (dose: 200.0 mg/kg/injection, schedule: Q04DX003 (ip), vehicle: Klucel (hydroxypropylcellulose) (HPC), evaluated on day 30): 86, 95, 96, 99, 111, 112, 114 (2×), 115, 117, 119, 123 (2×), 125, 127 (2×), 129, 130, 133 (2×), 136, 137, 139, 140, 142, 144, 155, 163, 169, 174, 199, 236 % of control
T/C (dose: 200.0 mg/kg/injection, schedule: Q04DX003 (ip), vehicle: Klucel (hydroxypropylcellulose) (HPC), evaluated on day 35): 162 % of control
survivor count (dose: 200.0 mg/kg/injection, schedule: Q04DX003 (ip), vehicle: Klucel (hydroxypropylcellulose) (HPC)): 3 of 3 and 6 of 6
T/C (dose: 200.0 mg/kg/injection, schedule: Q04DX003 (ip), vehicle: water): 126 % of control
T/C (dose: 200.0 mg/kg/injection, schedule: Q## X001 (ip), vehicle: saline): 95 [9 of 10 alive], 176, 185, 232 % of control [9 of 10 alive]
T/C (dose: 265.0 mg/kg/injection, schedule: Q01DX001 (ip), vehicle: saline, evaluated on day 45): 411, 427 [9 of 10 alive], 432, 450 % of control (2×)
T/C (dose: 265.0 mg/kg/injection, schedule: Q01DX001 (ip), vehicle: saline, evaluated on day 60): 540, 560, 566 (2×), 571, 576 % of control
T/C (dose: 267.0 mg/kg/injection, schedule: Q01DX001 (ip), vehicle: water): 127 % of control
T/C (dose: 300.0 mg/kg/injection, schedule: Q01DX001 (ip), vehicle: saline, evaluated on day 5): 252, 270, 275, 279 % of control
T/C (dose: 300.0 mg/kg/injection, schedule: Q01DX001 (ip), vehicle: saline, evaluated on day 9): 70, 90, 98, 110, 159, 247, 263, 266, 294, 355 % of control
T/C (dose: 300.0 mg/kg/injection, schedule: Q01DX001 (ip), vehicle: saline, evaluated on day 11): 311 % of control
T/C (dose: 300.0 mg/kg/injection, schedule: Q01DX001 (ip), vehicle: saline, evaluated on day 30): 168 % of control
T/C (dose: 300.0 mg/kg/injection, schedule: Q01DX001 (ip), vehicle: saline, evaluated on day 60): 252, 533, 535, 560 % of control
survivor count (dose: 300.0 mg/kg/injection, schedule: Q04DX003 (ip), vehicle: saline): 8 of 8
T/C (dose: 300.0 mg/kg/injection, schedule: Q## X001 (ip), vehicle: saline): 98, 110, 159, 247 [9 of 10 alive], 266, 275, 294 % of control
T/C [3]: 90 [2 of 3 alive], 92 [2 of 3 alive], 105, 107 [5 of 6 alive], 115, 117, 117 [5 of 6 alive], 152, 153, 160 [5 of 6 alive], 169, 200, 254 [2 of 3 alive], 260 [5 of 6 alive], 267, 272, 280, 286 [2 of 3 alive], 287, 288 % of control
survivor count [3]: 0 of 3, 1 of 3, 2 of 6, 3 of 6, 2 of 3, 5 of 6, 3 of 3, 6 of 6 (2×)
T/C (dose: 400.0 mg/kg/injection, schedule: Q01DX001 (ip), vehicle: saline, evaluated on day 5): 125 and 300 % of control
T/C (dose: 400.0 mg/kg/injection, schedule: Q01DX001 (ip), vehicle: saline, evaluated on day 10): 181 % of control
T/C (dose: 400.0 mg/kg/injection, schedule: Q01DX001 (ip), vehicle: saline, evaluated on day 21): 194 % of control
T/C (dose: 400.0 mg/kg/injection, schedule: Q01DX001 (ip), vehicle: saline, evaluated on day 30): 89, 90 [5 of 6 alive], 123, 140 [4 of 6 alive], 162 [5 of 6 alive], 171, 220 [5 of 6 alive], 232, 257, 265, 277, 283 [5 of 6 alive], 285 [5 of 6 alive], 294 (2×), 297, 300 (2×), 303, 309 % of control
T/C (dose: 400.0 mg/kg/injection, schedule: Q01DX001 (ip), vehicle: saline, evaluated on day 35): 163 % of control
T/C (dose: 400.0 mg/kg/injection, schedule: Q01DX001 (ip), vehicle: saline, evaluated on day 60): 174 and 550 % of control
survivor count (dose: 400.0 mg/kg/injection, schedule: Q01DX001 (ip), vehicle: saline): 0 of 6, 3 of 6, 4 of 6, 5 of 6, 6 of 6
T/C (dose: 400.0 mg/kg/injection, schedule: Q01DX001 (ip), vehicle: water, evaluated on day 6): 147 % of control
T/C (dose: 400.0 mg/kg/injection, schedule: Q01DX001 (ip), vehicle: water, evaluated on day 10): 109 % of control
T/C (dose: 400.0 mg/kg/injection, schedule: Q01DX001 (ip), vehicle: water, evaluated on day 30): 125 [4 of 6 alive] and 291 % of control
survivor count (dose: 400.0 mg/kg/injection, schedule: Q01DX009 (ip), vehicle: saline): 3 of 6
T/C [4]: 86 [4 of 6 alive], 90 (2×), 92, 93, 102, 109, 114, 129, 203, 236, 270 % of control
survivor count [4]: 1 of 3, 3 of 6, 2 of 3, 4 of 6, 5 of 6, 3 of 3, 6 of 6
T/C (dose: 400.0 mg/kg/injection, schedule: Q04DX003 (ip), vehicle: Klucel (hydroxypropylcellulose) (HPC), evaluated on day 30): 86, 88, 92, 100 % of control
T/C (dose: 400.0 mg/kg/injection, schedule: Q04DX003 (ip), vehicle: Klucel (hydroxypropylcellulose) (HPC), evaluated on day 35): 93 % of control [5 of 6 alive]
survivor count (dose: 400.0 mg/kg/injection, schedule: Q04DX003 (ip), vehicle: Klucel (hydroxypropylcellulose) (HPC)): 1 of 3, 3 of 6, 2 of 3, 4 of 6, 5 of 6, 3 of 3, 6 of 6
survivor count (dose: 500.0 mg/kg/injection, schedule: Q01DX001 (iv), vehicle: saline): 1 of 6
